No constants are given. Whether binding was seen depends on the method and setting. Binding seen in cells or lysates may run through a third protein. Some binding calls cover weakened binding; strength is not graded here.

Amino acid sequences for entries named in this document (tags omitted).
UniProt Q14573: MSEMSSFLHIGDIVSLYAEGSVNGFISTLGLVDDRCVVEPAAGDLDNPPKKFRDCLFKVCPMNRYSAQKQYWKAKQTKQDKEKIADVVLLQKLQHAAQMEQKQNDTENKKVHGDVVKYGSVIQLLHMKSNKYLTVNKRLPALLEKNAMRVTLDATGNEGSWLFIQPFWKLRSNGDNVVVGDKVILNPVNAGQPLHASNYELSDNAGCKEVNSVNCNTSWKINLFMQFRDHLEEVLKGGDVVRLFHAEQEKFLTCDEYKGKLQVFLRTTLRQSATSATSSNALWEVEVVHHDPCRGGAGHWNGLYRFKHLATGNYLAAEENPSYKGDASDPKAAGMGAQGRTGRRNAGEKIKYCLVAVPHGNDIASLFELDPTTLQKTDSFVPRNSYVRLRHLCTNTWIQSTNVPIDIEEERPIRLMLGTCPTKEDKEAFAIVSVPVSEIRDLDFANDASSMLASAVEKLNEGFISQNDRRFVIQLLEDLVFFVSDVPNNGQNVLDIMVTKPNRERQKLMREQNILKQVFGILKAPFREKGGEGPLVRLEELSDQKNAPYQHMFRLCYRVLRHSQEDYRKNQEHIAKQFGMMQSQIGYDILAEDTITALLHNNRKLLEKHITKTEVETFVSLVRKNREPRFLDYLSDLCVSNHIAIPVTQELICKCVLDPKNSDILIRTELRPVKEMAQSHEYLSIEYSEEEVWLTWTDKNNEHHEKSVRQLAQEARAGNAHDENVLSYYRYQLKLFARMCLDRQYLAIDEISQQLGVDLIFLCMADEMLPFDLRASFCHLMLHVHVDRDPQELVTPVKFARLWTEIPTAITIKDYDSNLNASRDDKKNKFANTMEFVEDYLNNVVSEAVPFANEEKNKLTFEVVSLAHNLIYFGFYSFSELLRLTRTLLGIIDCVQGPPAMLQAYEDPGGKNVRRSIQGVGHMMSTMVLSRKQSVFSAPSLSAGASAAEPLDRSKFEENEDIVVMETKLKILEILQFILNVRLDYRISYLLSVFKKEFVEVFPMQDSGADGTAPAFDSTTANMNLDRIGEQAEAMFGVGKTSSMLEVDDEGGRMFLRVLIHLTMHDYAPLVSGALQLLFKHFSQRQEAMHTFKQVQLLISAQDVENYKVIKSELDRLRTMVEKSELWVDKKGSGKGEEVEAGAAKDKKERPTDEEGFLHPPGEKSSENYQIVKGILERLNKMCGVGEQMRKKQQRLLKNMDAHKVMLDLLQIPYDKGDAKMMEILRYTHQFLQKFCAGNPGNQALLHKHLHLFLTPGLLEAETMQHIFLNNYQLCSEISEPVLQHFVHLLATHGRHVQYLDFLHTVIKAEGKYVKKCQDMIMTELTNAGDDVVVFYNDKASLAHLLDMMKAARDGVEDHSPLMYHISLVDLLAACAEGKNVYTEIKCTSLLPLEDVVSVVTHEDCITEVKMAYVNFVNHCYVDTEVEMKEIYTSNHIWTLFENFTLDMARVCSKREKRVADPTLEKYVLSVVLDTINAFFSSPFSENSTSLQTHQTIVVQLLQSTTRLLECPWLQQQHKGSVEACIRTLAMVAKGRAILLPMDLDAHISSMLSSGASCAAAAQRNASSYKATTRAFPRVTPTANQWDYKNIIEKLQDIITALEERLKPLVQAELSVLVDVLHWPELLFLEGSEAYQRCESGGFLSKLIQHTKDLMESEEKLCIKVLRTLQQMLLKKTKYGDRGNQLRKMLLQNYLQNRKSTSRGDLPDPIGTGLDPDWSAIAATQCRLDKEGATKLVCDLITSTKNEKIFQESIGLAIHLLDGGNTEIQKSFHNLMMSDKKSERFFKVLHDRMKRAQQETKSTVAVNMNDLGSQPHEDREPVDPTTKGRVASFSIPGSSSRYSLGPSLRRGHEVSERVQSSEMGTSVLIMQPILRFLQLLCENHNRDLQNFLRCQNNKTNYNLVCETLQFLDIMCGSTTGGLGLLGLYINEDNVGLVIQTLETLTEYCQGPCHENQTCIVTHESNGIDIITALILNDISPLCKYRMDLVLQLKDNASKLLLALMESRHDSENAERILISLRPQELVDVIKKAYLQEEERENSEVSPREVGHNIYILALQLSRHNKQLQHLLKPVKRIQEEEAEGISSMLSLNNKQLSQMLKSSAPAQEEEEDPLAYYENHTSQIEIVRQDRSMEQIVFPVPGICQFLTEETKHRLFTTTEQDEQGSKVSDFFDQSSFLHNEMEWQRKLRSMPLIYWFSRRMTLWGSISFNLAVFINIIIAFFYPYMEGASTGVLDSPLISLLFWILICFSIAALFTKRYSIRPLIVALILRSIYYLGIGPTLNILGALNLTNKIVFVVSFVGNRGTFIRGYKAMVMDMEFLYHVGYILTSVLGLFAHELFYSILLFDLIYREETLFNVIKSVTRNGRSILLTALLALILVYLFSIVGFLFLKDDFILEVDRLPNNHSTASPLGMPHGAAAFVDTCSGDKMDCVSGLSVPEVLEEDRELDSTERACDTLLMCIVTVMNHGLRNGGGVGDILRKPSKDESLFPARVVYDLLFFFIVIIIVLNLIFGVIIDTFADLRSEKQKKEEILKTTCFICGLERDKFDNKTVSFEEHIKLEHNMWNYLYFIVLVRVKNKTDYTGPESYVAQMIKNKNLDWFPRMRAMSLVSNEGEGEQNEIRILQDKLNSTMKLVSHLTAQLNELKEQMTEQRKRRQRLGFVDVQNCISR
UniProt Q9NZM1: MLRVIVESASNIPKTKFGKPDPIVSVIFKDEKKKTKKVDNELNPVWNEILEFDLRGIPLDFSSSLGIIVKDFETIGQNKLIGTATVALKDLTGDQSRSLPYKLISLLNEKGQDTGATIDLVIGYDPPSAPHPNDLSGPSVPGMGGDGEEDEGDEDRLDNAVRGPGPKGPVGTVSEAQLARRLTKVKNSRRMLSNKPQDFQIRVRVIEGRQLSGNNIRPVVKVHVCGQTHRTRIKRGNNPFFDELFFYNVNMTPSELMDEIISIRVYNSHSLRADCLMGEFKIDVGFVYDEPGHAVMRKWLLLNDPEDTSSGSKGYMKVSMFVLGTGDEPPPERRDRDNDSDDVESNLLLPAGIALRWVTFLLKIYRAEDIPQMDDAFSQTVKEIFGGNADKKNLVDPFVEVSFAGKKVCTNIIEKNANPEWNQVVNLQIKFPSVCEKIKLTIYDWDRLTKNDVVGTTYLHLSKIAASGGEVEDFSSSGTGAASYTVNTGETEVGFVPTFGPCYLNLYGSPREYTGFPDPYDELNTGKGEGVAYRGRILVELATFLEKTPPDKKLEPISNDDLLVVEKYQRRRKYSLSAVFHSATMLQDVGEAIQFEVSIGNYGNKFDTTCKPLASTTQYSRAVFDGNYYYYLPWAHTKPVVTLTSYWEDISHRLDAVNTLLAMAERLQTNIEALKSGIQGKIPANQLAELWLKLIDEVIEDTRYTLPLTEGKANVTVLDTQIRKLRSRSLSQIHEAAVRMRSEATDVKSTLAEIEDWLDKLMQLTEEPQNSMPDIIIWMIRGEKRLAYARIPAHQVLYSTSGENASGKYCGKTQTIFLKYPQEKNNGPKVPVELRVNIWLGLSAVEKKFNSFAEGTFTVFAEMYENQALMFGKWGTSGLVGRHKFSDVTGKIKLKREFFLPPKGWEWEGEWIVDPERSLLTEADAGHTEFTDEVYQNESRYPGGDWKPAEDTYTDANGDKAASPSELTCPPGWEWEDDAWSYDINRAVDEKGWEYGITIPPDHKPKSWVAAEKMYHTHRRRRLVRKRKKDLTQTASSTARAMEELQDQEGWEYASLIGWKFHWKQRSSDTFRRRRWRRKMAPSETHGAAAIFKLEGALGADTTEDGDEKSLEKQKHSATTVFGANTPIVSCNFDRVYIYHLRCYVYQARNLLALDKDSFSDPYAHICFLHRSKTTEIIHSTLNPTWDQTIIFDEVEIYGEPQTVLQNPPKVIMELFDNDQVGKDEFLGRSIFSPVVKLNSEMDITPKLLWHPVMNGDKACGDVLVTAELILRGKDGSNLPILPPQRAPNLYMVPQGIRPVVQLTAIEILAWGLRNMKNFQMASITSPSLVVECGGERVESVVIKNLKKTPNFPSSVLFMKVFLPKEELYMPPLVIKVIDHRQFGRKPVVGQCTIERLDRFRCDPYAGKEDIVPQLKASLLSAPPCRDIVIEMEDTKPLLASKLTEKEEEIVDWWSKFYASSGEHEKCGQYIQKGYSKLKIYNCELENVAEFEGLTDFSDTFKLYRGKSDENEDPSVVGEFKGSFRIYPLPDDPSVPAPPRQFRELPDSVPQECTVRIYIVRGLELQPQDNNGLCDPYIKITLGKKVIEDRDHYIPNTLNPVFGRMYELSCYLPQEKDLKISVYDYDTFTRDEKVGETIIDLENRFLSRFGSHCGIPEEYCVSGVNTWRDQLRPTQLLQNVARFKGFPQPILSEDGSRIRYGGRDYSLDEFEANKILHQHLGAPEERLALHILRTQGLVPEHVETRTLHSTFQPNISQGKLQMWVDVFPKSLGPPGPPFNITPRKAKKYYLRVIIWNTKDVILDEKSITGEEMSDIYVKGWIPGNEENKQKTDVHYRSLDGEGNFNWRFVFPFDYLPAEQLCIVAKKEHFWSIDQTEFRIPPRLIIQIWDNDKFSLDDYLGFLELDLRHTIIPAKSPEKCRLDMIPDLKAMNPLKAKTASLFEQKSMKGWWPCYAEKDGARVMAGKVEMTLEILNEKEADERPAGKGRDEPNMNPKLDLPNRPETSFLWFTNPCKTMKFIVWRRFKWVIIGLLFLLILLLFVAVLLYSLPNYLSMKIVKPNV
UniProt P21796: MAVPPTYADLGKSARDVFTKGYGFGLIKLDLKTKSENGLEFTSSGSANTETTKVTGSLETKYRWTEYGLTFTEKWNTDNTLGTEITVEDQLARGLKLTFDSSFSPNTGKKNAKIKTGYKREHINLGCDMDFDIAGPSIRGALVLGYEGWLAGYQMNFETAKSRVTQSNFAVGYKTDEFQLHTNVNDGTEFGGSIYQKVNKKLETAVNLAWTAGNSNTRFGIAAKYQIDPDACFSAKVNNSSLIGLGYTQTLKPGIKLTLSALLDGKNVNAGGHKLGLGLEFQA

In assay [1] the target is inositol 1,4,5-triphosphate receptor 3 (human (endogenous in Panc-1 and MiaPaCa-2)) (UniProt Q14573). Nature of the assay: proximity ligation; Duolink PLA on fixed Panc-1 and MiaPaCa-2 cells, endogenous proteins, primary antibodies 1:75 or 1:100; red signal if less than 40 nm separate both proteins; also done after myoferlin siRNA.
Assay [2] shares this target. Nature of the assay: co-IP; IP3R3 immunoprecipitated from MiaPaCa-2 lysate (1% NP40, 137 mM NaCl, 20 mM Tris-HCl pH 8, 2 mM EDTA); 5 µg antibody on 500 µg extract overnight, protein A/G magnetic beads, low salt and 450 mM NaCl washes with 0.1% SDS; isotype IgG control; myoferlin by western blot. In general terms: In western blotting, separated proteins are transferred to a membrane and probed.

Assay [3] has the same target. Nature of the assay: co-IP; IP3R3 immunoprecipitated from Panc-1 whole cell lysate (1% NP40, 137 mM NaCl, 20 mM Tris-HCl pH 8, 2 mM EDTA); 5 µg antibody on 500 µg extract overnight, protein A/G magnetic beads, low salt and 450 mM NaCl washes with 0.1% SDS; isotype IgG control; myoferlin by western blot.

As to myoferlin (from UniProt Q9NZM1 1-2061), the binding entry in assay [1] is on record as “binds”; in assay [2] it was “binds weakly”; in assay [3], “binds”.

In the case of “voltage-dependent anion channel 1 (from UniProt P21796 1-283)”, the binding result in assay [1] is on record as “binds”.

The values above are taken from article PMC10874564.
